Results on four molecules are retold here after patent publication US20230312729A1.

The chains behind the UniProt entries cited, without tags or fusion partners. Residues count along the entry.
UniProt P07766, residues 23-126: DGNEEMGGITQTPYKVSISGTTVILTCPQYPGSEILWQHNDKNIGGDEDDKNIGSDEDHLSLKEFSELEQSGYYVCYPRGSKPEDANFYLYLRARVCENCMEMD

The assay addresses Biotinylated CD3 epsilon antigen (Creative Biomart) (UniProt P07766). The experiment in a line: BLI (ForteBio BLItz).

Changes are numbered by the printed parent chain. Results are given in words; binding and its absence hold for the method and conditions named. Some entries that bind do so weakly or less than the wild type.

B1: CD3.23 scFv (scFv)
scFv: ELVVTQEPSLTVSPGGTVTLTCRSSNGAVTSSNYANWVQQKPGQAPRGLIGGTNKRAPGTPARFSGSLLGGKAALTLSGVQPEDEAVYYCALWYPNLWVFGGGTKLTVLGATPPETGAETESPGETTGGSAESEPPGEGEVQLLESGGGIVQPGGSLKLSCAASGFTFNTYAMNWVRQAPGKGLEWVARIRSKYNNYATYYADSVKDRFTISRDDSKNTVYLQMNNLKTEDTAVYYCVRHENFGNSYVSWFAHWGQGTLVTVSS
On to B1, for which the binding entry is on record as “binds”.

B2: CD3.25 scFv (scFv)
scFv: B1 scFv with L10H, N26T, N54I, V87E
B2: the binding result was “binds”.

B3: CD3.26 scFv (scFv)
scFv: B1 scFv with L10H, N26T, A28E, S31T, N54I, V87E
For B3, the binding entry is listed as “binds”.

B4: CD3.24 scFv (scFv)
scFv: B1 scFv with A28E, S31T, N54I
Consider B4, for which the binding result is reported as “binds”.
